Measured values published in publication PMC2859380.
These are yes or no findings as the source states them, for the method shown. In cells and extracts the contact can be indirect. Binding calls can cover weak binding; strength is not graded here.

The chains behind the UniProt entries cited, without tags or fusion partners. Where a name states a change or a piece, a line headed by the entry shows the natural chain unless it says otherwise.
UniProt Q9VKW8: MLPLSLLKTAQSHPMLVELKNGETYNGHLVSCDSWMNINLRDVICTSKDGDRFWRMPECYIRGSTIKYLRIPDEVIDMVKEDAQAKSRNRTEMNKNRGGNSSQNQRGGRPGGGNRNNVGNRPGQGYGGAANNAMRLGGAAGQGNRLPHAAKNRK
UniProt Q9W087: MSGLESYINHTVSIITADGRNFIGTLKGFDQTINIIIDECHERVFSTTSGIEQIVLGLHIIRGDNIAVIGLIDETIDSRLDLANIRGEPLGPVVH
UniProt Q9VRT7: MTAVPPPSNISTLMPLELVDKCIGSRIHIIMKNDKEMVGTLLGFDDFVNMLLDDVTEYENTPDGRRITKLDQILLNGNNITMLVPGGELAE
UniProt Q9W2P5: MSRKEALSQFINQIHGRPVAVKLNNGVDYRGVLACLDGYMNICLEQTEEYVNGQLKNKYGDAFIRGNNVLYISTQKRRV
UniProt Q9VX15: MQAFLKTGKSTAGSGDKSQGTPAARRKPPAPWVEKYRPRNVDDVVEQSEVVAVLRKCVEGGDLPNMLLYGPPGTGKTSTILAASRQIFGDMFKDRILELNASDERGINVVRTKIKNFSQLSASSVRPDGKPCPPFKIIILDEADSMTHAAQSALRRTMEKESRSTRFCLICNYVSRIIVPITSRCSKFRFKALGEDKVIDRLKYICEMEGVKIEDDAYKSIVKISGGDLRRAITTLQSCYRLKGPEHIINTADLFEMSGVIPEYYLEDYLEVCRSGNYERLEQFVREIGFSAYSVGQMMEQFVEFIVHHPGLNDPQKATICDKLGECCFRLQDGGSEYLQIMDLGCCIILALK
UniProt Q9U9Q1: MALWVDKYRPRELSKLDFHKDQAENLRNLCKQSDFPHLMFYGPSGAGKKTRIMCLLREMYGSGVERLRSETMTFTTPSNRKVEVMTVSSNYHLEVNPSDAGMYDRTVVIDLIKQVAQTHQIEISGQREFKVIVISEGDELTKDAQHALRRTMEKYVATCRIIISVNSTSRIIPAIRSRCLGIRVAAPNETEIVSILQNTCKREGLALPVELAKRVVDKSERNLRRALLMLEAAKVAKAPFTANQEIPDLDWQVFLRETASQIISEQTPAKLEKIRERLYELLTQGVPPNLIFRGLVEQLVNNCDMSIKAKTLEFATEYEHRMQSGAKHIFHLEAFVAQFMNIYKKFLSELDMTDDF
UniProt Q9VK69: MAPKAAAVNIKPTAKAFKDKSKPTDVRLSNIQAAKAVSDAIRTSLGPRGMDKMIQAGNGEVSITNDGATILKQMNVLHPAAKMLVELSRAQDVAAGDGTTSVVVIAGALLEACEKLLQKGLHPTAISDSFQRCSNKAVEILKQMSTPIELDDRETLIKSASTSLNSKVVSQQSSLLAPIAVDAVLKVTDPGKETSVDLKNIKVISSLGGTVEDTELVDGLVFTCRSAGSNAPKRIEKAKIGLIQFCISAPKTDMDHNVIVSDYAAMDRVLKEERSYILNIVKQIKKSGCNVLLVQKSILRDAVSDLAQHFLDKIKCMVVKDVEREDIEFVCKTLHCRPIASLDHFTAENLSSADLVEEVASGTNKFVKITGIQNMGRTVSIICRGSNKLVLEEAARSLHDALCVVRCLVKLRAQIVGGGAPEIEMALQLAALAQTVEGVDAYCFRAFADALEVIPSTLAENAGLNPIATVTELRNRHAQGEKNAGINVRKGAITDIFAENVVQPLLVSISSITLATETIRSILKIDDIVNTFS
UniProt Q9VJI7: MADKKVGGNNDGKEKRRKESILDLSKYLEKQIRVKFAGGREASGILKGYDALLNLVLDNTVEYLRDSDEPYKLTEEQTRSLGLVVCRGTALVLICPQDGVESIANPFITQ
UniProt P53034: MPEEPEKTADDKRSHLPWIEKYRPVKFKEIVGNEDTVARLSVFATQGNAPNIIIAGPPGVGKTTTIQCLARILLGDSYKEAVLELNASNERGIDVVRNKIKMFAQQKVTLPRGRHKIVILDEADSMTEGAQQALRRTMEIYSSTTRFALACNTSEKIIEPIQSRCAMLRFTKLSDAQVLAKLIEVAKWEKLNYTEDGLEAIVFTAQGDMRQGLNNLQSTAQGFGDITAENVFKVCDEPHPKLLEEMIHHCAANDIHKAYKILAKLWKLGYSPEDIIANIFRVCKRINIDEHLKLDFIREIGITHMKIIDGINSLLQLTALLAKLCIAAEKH
UniProt Q8IP97: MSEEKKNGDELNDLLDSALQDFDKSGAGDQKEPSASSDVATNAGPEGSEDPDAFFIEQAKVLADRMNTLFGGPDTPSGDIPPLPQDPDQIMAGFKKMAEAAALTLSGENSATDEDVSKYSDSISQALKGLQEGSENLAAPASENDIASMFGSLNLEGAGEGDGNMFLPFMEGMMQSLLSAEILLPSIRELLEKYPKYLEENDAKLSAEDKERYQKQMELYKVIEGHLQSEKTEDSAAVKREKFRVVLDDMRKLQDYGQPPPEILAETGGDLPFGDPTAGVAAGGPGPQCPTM
UniProt Q9VTW6: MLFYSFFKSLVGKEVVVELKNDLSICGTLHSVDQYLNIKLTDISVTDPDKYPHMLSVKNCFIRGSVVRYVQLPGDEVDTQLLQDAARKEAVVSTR

Tests used:
Test in all cases: co-IP; pairs tagged with FLAG or HA, co-expressed in Kc167 cells; lysate in radioimmunoprecipitation assay buffer (50 mM Tris pH 7.4, 150 mM NaCl, 0.1% SDS, 0.5% sodium deoxycholate, 1% NP40); immunoprecipitated with anti-FLAG, membranes probed with anti-HA, stripped, probed with anti-FLAG
[1] = target: CG17768 (Drosophila melanogaster) (UniProt Q9VKW8)
[2] = target: CG2021 (Drosophila melanogaster) (UniProt Q9W087)
[3] = target: CG6610 (Drosophila melanogaster) (UniProt Q9VRT7)
[4] = target: CG9344 (Drosophila melanogaster) (UniProt Q9W2P5)
[5] = target: T1, SmD3 (Drosophila melanogaster) (UniProt O44437)
T1 sequence: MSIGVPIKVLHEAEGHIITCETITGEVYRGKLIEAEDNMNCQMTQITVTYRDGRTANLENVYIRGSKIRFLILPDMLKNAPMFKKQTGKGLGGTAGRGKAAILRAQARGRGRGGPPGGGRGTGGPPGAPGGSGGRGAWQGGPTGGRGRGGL

[6] = target: CG8142 (Drosophila melanogaster) (UniProt Q9VX15)
[7] = target: RfC38 (Drosophila melanogaster) (UniProt Q9U9Q1)
[8] = target: T2, spn-A (Drosophila melanogaster) (UniProt Q27297)
T2 sequence: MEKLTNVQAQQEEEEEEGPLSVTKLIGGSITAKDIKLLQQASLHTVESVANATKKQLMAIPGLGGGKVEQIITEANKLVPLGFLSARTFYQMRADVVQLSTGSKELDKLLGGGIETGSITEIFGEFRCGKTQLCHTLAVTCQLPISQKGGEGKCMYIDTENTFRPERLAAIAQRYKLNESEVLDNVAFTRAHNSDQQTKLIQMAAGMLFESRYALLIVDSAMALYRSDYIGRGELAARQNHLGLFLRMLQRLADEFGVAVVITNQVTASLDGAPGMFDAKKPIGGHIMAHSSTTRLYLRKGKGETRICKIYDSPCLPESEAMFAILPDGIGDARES

[9] = target: CG5525 (Drosophila melanogaster) (UniProt Q9VK69)

Substance: LSm7 (from UniProt Q9VJI7)
- binding [1]: binds
- binding [2]: binds
- binding [3]: binds
- binding [4]: binds
- binding [5]: binds

Substance: RfC4 (from UniProt P53034 1-331)
- binding [6]: binds
- binding [7]: binds

Substance: CG12703 (Drosophila melanogaster)
- binding [8]: binds

Substance: CG5325 (from UniProt Q8IP97)
- binding [9]: binds

Substance: CG9344 (from UniProt Q9W2P5)
- binding [2]: binds
- binding [3]: binds

Substance: CG10418 (from UniProt Q9VTW6)
- binding [1]: no binding
- binding [3]: binds
- binding [5]: no binding

Substance: CG2021 (from UniProt Q9W087)
- binding [1]: binds
